PubChem BioAssay AID624297 (National Center for Advancing Translational Sciences (NCATS), 2012)
The whole screen tested about 340,000 compounds, of which about 6,200 (1.8%) were called active. Inconclusive results, whose numbers are uncertain, are shown with a selection of clear calls. Calls follow the shape of the dose curve; as a rule, active = well fitted activation curve with a large enough effect; inconclusive = small, poorly fitted or top-dose-only effect; inactive = no such curve, though single readings can be large or run the other way. Where the call is inconclusive, the potency comes from a doubtful curve fit.

Assay: A quantitative high throughput screen for small molecules that induce DNA re-replication in SW480 colon adenocarcinoma cells. Also: nearly all actives have a fitted effect of over 55% in size. As to re-replication activation: % of control where 0% means no effect.
Conditions: Hoechst DNA content imaging, 48 h; re-replication activation: at 46.1 µM (top of the series) unless noted
In short: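 Image-based DNA-content assay: after two days of treatment, nuclei were labelled with the DNA dye Hoechst and imaged, and hits were compounds raising the count of nuclei showing high fluorescence intensity.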
Potency is read from the fitted curve at half-maximal effect.

Structure (SMILES) | re-replication activation | Potency
CC1CCCCC1NC(=O)CN1C(=O)NC(C)(c2cccc(Br)c2)C1=O (centres undefined) | inactive: -7.56% | 
O=C(CN1CCN(Cc2ccccc2)CC1)Nc1cccc(S(=O)(=O)N2CCCCCC2)c1 |  | inconclusive: 29.1 µM [activator, single point]
COc1ccc(OC)c(-c2cnc(OC(C)(C)C)nc2OC(C)(C)C)c1 |  | inconclusive: 10.3 µM [activator, partial curve]
C#Cc1ccc([C@H]2C=C(C(=O)N3CCN(Cc4ccc5c(c4)OCO5)CC3)O[C@@H](OCc3ccc(CO)cc3)C2)cc1 |  | inconclusive: 20.6 µM [activator, partial curve, poor fit]
CC1CCCCN1C(=O)c1ccc(NC(=O)c2ccccc2Cl)cc1 (centres undefined) | inactive: -4.17% | 
CC(Oc1ccc(Cl)cc1Cl)C(=O)NC1=NN(c2ccccc2)C(=O)C1 (centres undefined) | inactive: -3.28% | 
CC(C)(C)NCC(O)Cn1cc(C=O)c2ccccc21 (centres undefined) |  | inconclusive: 1.16 µM [activator, partial curve, poor fit]
Cc1ccc(C(=O)N[C@H](C(=O)OCc2nnc(-c3ccccc3)o2)C(C)C)cc1 |  | inconclusive: 29.1 µM [activator, single point]
CCOc1cccc(/C=C/c2ccc3cccc(O)c3n2)c1O |  | inconclusive: 29.1 µM [activator, single point]
Cc1ccc(CNc2nc3ccccc3n3nnnc23)cc1 | inactive: -0.544% | 
COc1ccc(S(=O)(=O)N2CCCCC2)cc1C(=O)N1CCCCCC1 | inactive: -2.17% | 
Cc1ccc(/C=N/NC(=O)c2cc(-c3ccccc3)nc3ccccc23)o1 |  | inconclusive: 18.4 µM [activator, partial curve, poor fit]
O=C1C=C(N2CCOCC2)c2ccccc2C1=O |  | active: 2.91 µM
CC(=O)Nc1ccc2c(c1)Cc1ccc(Cl)cc1-2 | inconclusive: 52.6% [activator] | 
COc1cc(C(=O)OCC(=O)N2CCOCC2)c([N+](=O)[O-])cc1OC | inactive: -0.959% | 
CC(C)CCNC(=O)Nc1ccc2c(c1)N(C)C(=O)CS2 | inactive: 0.632% | 
CN(C)CCOCCOc1ccc(Cl)cc1C(C)(C)C |  | inconclusive: 29.1 µM [activator, single point]
Cc1cc(C)c(C(=O)N2CCCC(CNS(=O)(=O)N(C)C)C2)o1 (centres undefined) |  | inconclusive: 3.66 µM [activator, single point]
CCCN1C(=O)SC(CC(=O)Nc2ccccc2)C1=O (centres undefined) | inactive: 7.19% | 
CC(=NNC(=S)N1CC2CCC(CC2)C1)c1ccncn1 |  | inconclusive: 0.0052 µM [activator, full curve, poor fit]
Cc1ccc(S(=O)(=O)c2nc(-c3cccs3)oc2NCCCN(C)C)cc1 | inactive: -2.41% | 
COc1cc(OC)cc(N2CC(C)(C)C2=O)c1 | inactive: 1.2% | 
Cc1ccc(OCC(=O)c2c(N)n(C)c(=O)n(C)c2=O)c([N+](=O)[O-])n1 |  | inconclusive: 3.66 µM [activator, full curve, poor fit]
Brc1ccccc1C1CC(c2ccccc2)=Nc2ccccc2N1 (centres undefined) |  | inconclusive: 18.4 µM [activator, single point]
Cc1c(C(=O)OCC(=O)N(C)CC(=O)Nc2ccc(F)cc2)oc2ccccc12 | inactive: -4.72% | 

Structural class: the compounds so far containing a furan ring, fused or not
Structure (SMILES) | re-replication activation | Potency
Cc1ccc(/C=N/NC(=O)c2cc(-c3ccccc3)nc3ccccc23)o1 |  | inconclusive: 18.4 µM [activator, partial curve, poor fit]
Cc1cc(C)c(C(=O)N2CCCC(CNS(=O)(=O)N(C)C)C2)o1 (centres undefined) |  | inconclusive: 3.66 µM [activator, single point]
Cc1c(C(=O)OCC(=O)N(C)CC(=O)Nc2ccc(F)cc2)oc2ccccc12 | inactive: -4.72% | 

Next structures.

Structure (SMILES) | re-replication activation | Potency
O=C(N/N=C/c1ccccc1OCC(=O)N1CCCC1)C(=O)Nc1ccccc1F | inactive: -3.63% | 
Cc1cccc(C2NC(c3cccc(C)c3)C([N+](=O)[O-])C(C)(C)C2[N+](=O)[O-])c1 (centres undefined) |  | inconclusive: 8.2 µM [activator, single point]
O=C1CC(c2ccccc2)Cc2nc(NCc3ccco3)ncc21 (centres undefined) |  | inconclusive: 29.1 µM [activator, partial curve, poor fit]
Cc1cc(C)nc(NS(=O)(=O)c2ccc(NC(=O)C(C)Oc3ccccc3F)cc2)n1 (centres undefined) | inactive: -16.1% | 
CC(=O)c1ccc(OCCCC(=O)NC(C)c2ccc(S(N)(=O)=O)cc2)cc1 (centres undefined) |  | inconclusive: 6.51 µM [activator, single point]
CN1CCc2c(OCC(=O)N3CCCc4ccccc43)cccc2C1=O |  | inconclusive: 6.51 µM [activator, partial curve, poor fit]
Cc1ccc(-c2noc(CNC(=O)COc3ccccc3C)n2)cc1 | inactive: -8.72% | 
CCc1cc(-c2n[nH]c(C)c2-c2ccccc2Cl)c(O)cc1OC | inactive: 10.1% | 
c1ccc(OCCN2CCNCC2)cc1 | inactive: -5.73% | 
O=C(O)C1CCc2sc3[nH]c(=S)n(-c4ccccc4)c(=O)c3c21 (centres undefined) | inactive: -39.8% | 
CCOC(=O)c1c(NC(=O)CN(C)C2CCN(C)CC2)sc(C(=O)Nc2ccccc2)c1C |  | inconclusive: 29.1 µM [activator, single point]
NC(=O)c1ccc(NC(=O)COC(=O)CCN=C2NS(=O)(=O)c3ccccc32)cc1 | inactive: -9.71% | 
COc1cccc(/C=N\NC(=O)C2C(=O)NCC2c2ccccc2)c1O (centres undefined) |  | inconclusive: 29.1 µM [activator, partial curve, poor fit]
CCc1[nH]nc2c1C(c1ccc(Br)s1)C(C#N)=C(N)O2 (centres undefined) |  | inconclusive: 35.5 µM [activator, single point]
Cc1ccc(NCCC(=O)c2ccccc2)cc1Cl | inactive: -14% | 
Cc1oc(-c2ccc3c(c2)OCCO3)cc1C(=O)O | inactive: -5.86% | 
Cc1ccc(-n2c(C)nnc2SCC(=O)N2CCOCC2)cc1 |  | inconclusive: 29.1 µM [activator, single point]
CC(C)(C)CC(=O)NC(=S)NCc1ccccc1 | inactive: -1.62% | 
COc1ccccc1C/C(N)=N/OC(=O)c1ccc2c(c1)OCO2 |  | inconclusive: 29.1 µM [activator, single point]
COc1ccc(CN2CCc3c([nH]c4ccccc34)C2)cc1Br |  | inconclusive: 29.1 µM [activator, partial curve, poor fit]
Cc1ccc(OCC(=O)N2N=C(c3ccc(Cl)cc3)CC2c2ccco2)c([N+](=O)[O-])n1 (centres undefined) | inactive: -3.7% | 
CCc1cc2c3c(c1)C(C)CC(C)(C)N3C(=O)C2=O (centres undefined) |  | inconclusive: 18.4 µM [activator, single point]
COc1ccc(-n2nc3cc(C)c(N)c(Br)c3n2)cc1 | inactive: 12.1% | 
CCCCC1=CC2=CC(=O)C(C)(OC(=O)CC)C(=O)C2=CN1Cc1ccc(OC)cc1 (centres undefined) |  | inconclusive: 6.51 µM [activator, single point]
O=C(C1CCN(S(=O)(=O)c2ccccc2)CC1)N1CCCCC1 |  | inconclusive: 23.1 µM [activator, single point]

Structure (SMILES) | re-replication activation | Potency
COc1ccc(NC(=O)C23CC4CC(CC(Cl)(C4)C2)C3)cc1S(=O)(=O)N1CCOCC1 | inactive: -2.81% | 
CC(C)(C)c1ccc(C(=O)Oc2ccccc2CCC(=O)O)cc1 |  | inconclusive: 29.1 µM [activator, single point]
S=C(NN=C(c1ccccc1)c1ccccn1)N(Cc1ccccn1)Cc1ccccn1 |  | inconclusive: 1.03 µM [activator, full curve, poor fit]
COc1ccc(S(=O)(=O)N2CCCC2CNC(=O)C(=O)NCCc2ccccc2)cc1 (centres undefined) |  | inconclusive: 18.4 µM [activator, single point]
CC(=O)N1CCc2cc(S(=O)(=O)NCc3ccc(C)cc3)ccc21 |  | inconclusive: 29.1 µM [activator, partial curve, poor fit]
Cc1cccc(C)c1OCC(N)C(C)C (centres undefined) | inactive: -8.83% | 
Cc1nc2ccccc2c(=O)n1NC(=O)c1cncc(Br)c1 |  | inconclusive: 0.731 µM [activator, partial curve, poor fit]
N/C(COc1cc(Cl)cc(Cl)c1)=N\O | inactive: -3.33% | 
Clc1ccc(Nc2nc(NCCN3CCOCC3)nc(N3CCOCC3)n2)cc1 |  | active: 9.2 µM
CCC(C)NC(=O)Cn1cccc1C(=O)c1ccccc1 (centres undefined) |  | inconclusive: 0.164 µM [activator, full curve, poor fit]
COC(=O)C1=CN(c2cccc(Cl)c2)C=C(C(=O)OC)C1c1cccc(OC)c1 |  | inconclusive: 16.4 µM [activator, single point]
CCNC(=S)N(Cc1cccs1)Cc1cc2cc(OCC)ccc2[nH]c1=O | inactive: -4.9% | 
CCC(=O)Nc1nnc(C)s1 |  | inconclusive: 6.51 µM [activator, single point]
Cc1ccccc1CC1(CO)CCCN(C(=O)c2ccc3ncccc3c2)C1 (centres undefined) |  | inconclusive: 29.1 µM [activator, single point]
Cc1c(-c2ccccc2)[nH]n2c(=O)c3c(nc12)CCCC3 |  | inconclusive: 32.6 µM [activator, single point]
COc1cc(O)c(CC=C(C)C)c(O)c1C(=O)CCc1ccc(O)cc1 |  | inconclusive: 3.66 µM [activator, partial curve, poor fit]
CCN(CC)c1cc(C)c2cc(NC(=O)c3cccs3)ccc2n1 |  | inconclusive: 29.1 µM [activator, single point]
O=C(N/N=C/c1cccnc1)c1cccc(S(=O)(=O)Nc2cccc(Cl)c2)c1 | inactive: 0.895% | 
COc1cc(CNC2CCCCCCC2)ccc1OCC(N)=O |  | inconclusive: 4.11 µM [activator, single point]
COc1ccc(C(Nc2ccccn2)c2c(NC(=O)c3ccco3)sc(C)c2C)cc1OC (centres undefined) |  | inconclusive: 29.1 µM [activator, single point]
COc1ccccc1NC(=S)NNC(=O)c1nn(C)cc1Cl | inactive: -8.18% | 
CCOC(=O)c1c(CC(C)C)csc1/N=C/C1=C(O)CCCC1=O |  | inconclusive: 18.4 µM [activator, single point]
C/C=C/Cn1c(N2CCCCCC2)nc2c1c(=O)[nH]c(=O)n2C | inactive: -1.28% | 
Cn1c(=O)c(=O)n(C)c2cc(N3CCCCC3)c(NS(=O)(=O)c3ccc(Br)cc3)cc21 |  | active: 7.31 µM
